PubChem BioAssay AID504774 – Drosophila RNAi Screening Center – 2011
Aim: 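Fly genes whose loss alters survival after alkylation damage to DNA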 (primary screen). System: Drosophila Kc167 cells. Knock-down reagent: long dsRNA against Drosophila genes, about 0.25 µg dsRNA per well. Time to read-out: about 6 days: 3 days knock-down, then 3 days with or without MMS. Treatment: methyl methanesulphonate 0.004% (w/v) for 3 days after knock-down. Detection: 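Viability in wells given MMS, read as ATP luminescence, normalised by quantiles plate by plate and averaged across replicates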. Reading the numbers: mean viability with MMS and viability with MMS: higher = more surviving cells after MMS.
The screen tested about 23,000 reagents; shown is an unselected part of those with a known target gene and a result. 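Values are quantile-normalised luminescence on an arbitrary scale; higher means more cells surviving MMS.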

| target | amplicon | mean viability with MMS | viability with MMS, replicate 1 | viability with MMS, replicate 2 |
| --- | --- | --- | --- | --- |
| Tsr1 (GeneID 40360) | DRSC11821 | 3.35e6 | 3.80e6 | 3.76e6 |
| daed (GeneID 33398) | DRSC00299 | 3.32e6 | 3.49e6 | 3.88e6 |
| mrj (GeneID 36797) | DRSC22592 | 3.49e6 | 3.99e6 | 3.95e6 |
| NaPi-T (GeneID 36651) | DRSC07476 | 3.66e6 | 4.29e6 | 4.14e6 |
| CG12213 (GeneID 41447) | DRSC14478 | 3.60e6 | 4.07e6 | 4.12e6 |
| CG12213 (GeneID 41447) | DRSC22109 | 3.69e6 | 4.23e6 | 4.05e6 |
| l(3)80Fg (GeneID 3354941) | DRSC21645 | 3.71e6 | 3.99e6 | 4.36e6 |
| l(3)80Fg (GeneID 3354941) | DRSC22171 | 3.57e6 | 3.98e6 | 4.09e6 |
| CecA2 (GeneID 43597) | DRSC16604 | 3.48e6 | 3.90e6 | 3.94e6 |
| B-H2 (GeneID 32723) | DRSC19335 | 2.75e6 | 3.46e6 | 3.44e6 |
| B-H2 (GeneID 32723) | DRSC23012 | 3.41e6 | 4.00e6 | 3.77e6 |
| CG11404 (GeneID 40474) | DRSC11656 | 3.34e6 | 3.73e6 | 3.79e6 |
| Nmd3 (GeneID 31195) | DRSC18687 | 3.71e6 | 4.16e6 | 4.23e6 |
| Nmd3 (GeneID 31195) | DRSC22834 | 3.48e6 | 4.02e6 | 3.91e6 |
| Twdlbeta (GeneID 36265) | DRSC07310 | 3.57e6 | 4.08e6 | 4.07e6 |
| CG8435 (GeneID 36789) | DRSC07179 | 3.25e6 | 3.72e6 | 3.77e6 |
| Prp3 (GeneID 40172) | DRSC10912 | 3.16e6 | 3.63e6 | 3.61e6 |
| CG2269 (GeneID 36056) | DRSC06833 | 3.65e6 | 4.17e6 | 4.12e6 |
| CG12692 (GeneID 31372) | DRSC17881 | 3.53e6 | 4.23e6 | 3.80e6 |
| CG7006 (GeneID 42963) | DRSC16169 | 3.46e6 | 3.91e6 | 3.95e6 |
| CG3632 (GeneID 32589) | DRSC19137 | 3.62e6 | 4.00e6 | 4.14e6 |
| CG3632 (GeneID 32589) | DRSC19871 | 3.61e6 | 4.30e6 | 3.76e6 |
| Acf (GeneID 43751) | DRSC14101 | 3.40e6 | 3.94e6 | 3.78e6 |
| RpL24-like (GeneID 41372) | DRSC16111 | 3.50e6 | 4.00e6 | 3.96e6 |
| QIL1 (GeneID 39948) | DRSC10888 | 3.47e6 | 3.93e6 | 3.91e6 |

Continued, starting with the last 6 of the part before.
| target | amplicon | mean viability with MMS | viability with MMS, replicate 1 | viability with MMS, replicate 2 |
| --- | --- | --- | --- | --- |
| CG7006 (GeneID 42963) | DRSC16169 | 3.46e6 | 3.91e6 | 3.95e6 |
| CG3632 (GeneID 32589) | DRSC19137 | 3.62e6 | 4.00e6 | 4.14e6 |
| CG3632 (GeneID 32589) | DRSC19871 | 3.61e6 | 4.30e6 | 3.76e6 |
| Acf (GeneID 43751) | DRSC14101 | 3.40e6 | 3.94e6 | 3.78e6 |
| RpL24-like (GeneID 41372) | DRSC16111 | 3.50e6 | 4.00e6 | 3.96e6 |
| QIL1 (GeneID 39948) | DRSC10888 | 3.47e6 | 3.93e6 | 3.91e6 |
| MED1 (GeneID 40403) | DRSC11808 | 3.28e6 | 3.73e6 | 3.71e6 |
| CG7556 (GeneID 32902) | DRSC20052 | 3.66e6 | 4.26e6 | 4.07e6 |
| CG15385 (GeneID 33396) | DRSC00399 | 3.58e6 | 4.00e6 | 4.13e6 |
| CG11037 (GeneID 40317) | DRSC11631 | 3.63e6 | 4.18e6 | 4.05e6 |
| Vha55 (GeneID 41550) | DRSC16896 | 3.51e6 | 3.89e6 | 4.07e6 |
| Hand (GeneID 34379) | DRSC02656 | 3.78e6 | 4.29e6 | 4.31e6 |
| Ipo9 (GeneID 41367) | DRSC16813 | 3.58e6 | 4.03e6 | 4.06e6 |
| mRpL32 (GeneID 43698) | DRSC14479 | 3.39e6 | 3.88e6 | 3.74e6 |
| feo (GeneID 32015) | DRSC19398 | 1.79e6 | 4.02e6 | 3.92e6 |
| beat-Vc (GeneID 41575) | DRSC12927 | 3.37e6 | 3.79e6 | 3.83e6 |
| beat-Vc (GeneID 41575) | DRSC14849 | 3.38e6 | 3.93e6 | 3.79e6 |
| kdn (GeneID 31579) | DRSC18328 | 3.87e6 | 4.41e6 | 4.49e6 |
| Bap55 (GeneID 36956) | DRSC07000 | 3.32e6 | 3.79e6 | 3.78e6 |
| achi (GeneID 36373) | DRSC07276 | 3.60e6 | 4.13e6 | 4.12e6 |
| CG17109 (GeneID 42730) | DRSC15172 | 3.71e6 | 4.16e6 | 4.24e6 |
| ecd (GeneID 38291) | DRSC08574 | 3.46e6 | 3.90e6 | 3.93e6 |
| Kif19A (GeneID 41717) | DRSC16576 | 1.85e6 | 4.05e6 | 3.96e6 |
| ATPsynGL (GeneID 34054) | DRSC03027 | 3.59e6 | 4.33e6 | 3.82e6 |
| Lamp1 (GeneID 35411) | DRSC03727 | 3.56e6 | 4.17e6 | 3.90e6 |
| Vha100-4 (GeneID 42214) | DRSC16282 | 3.45e6 | 3.97e6 | 3.87e6 |
| Rgk3 (GeneID 5740446) | DRSC04250 | 3.61e6 | 3.91e6 | 3.91e6 |
| Rgk3 (GeneID 5740446) | DRSC04251 | 3.67e6 | 4.07e6 | 4.23e6 |
| Rgk3 (GeneID 5740446) | DRSC04254 | 3.52e6 | 3.99e6 | 3.97e6 |
| Rgk3 (GeneID 5740446) | DRSC04255 | 3.66e6 | 4.16e6 | 4.13e6 |
